Data from paper doi:10.1101/2024.05.26.595847.

System: GST_ZOS5-09
Test: EMSA
Conditions: poly dI.dC; CACT to GTTC in each copy

Question: Does “TGTGCAAGTTCAGCCGGATGTGCAAGTTCAGCCGGA (double strand) [2X mZF_BS]” bind?
Answer: no binding

The exact form of at least one protein or probe is not confirmed. Negatives hold for the conditions tested.
